# Measured values as given in patent US20080301822A1, “Role of alpha1-adrenergic receptors” (The Cleveland Clinic Foundation, priority 2005, published 2008).
# For at least one compound, name, drawing or mass did not settle the structure.
# System: α1A-AR mediated increased Ngn2 expression in normal neonatal neurospheres
# Experiment: Real time PCR of α1A-AR induced Ngn2 expression with signaling inhibitors
# Format: cell-based, mouse
# Conditions: one day phenylephrine treated normal neonatal neurospheres; FIG. 27
# Method: Real Time PCR. Neurospheres were grown in proliferation or differentiation medium for 1, 3, 7 and 10 days respectively. The neurospheres grown in the proliferation medium were treated with phenlyephrine for the above-mentioned time along with Rauwalscine (0.1 uM) and Propranolol (1 uM). Total RNA was isolated using the RNAesy kit (Quiagen) and 2 ug RNA was reverse transcribed using oligodT primers with Superscript II Reverse Transcriptase (Invitrogen). Quantitative real time PCR was performed in iCycler (Biorad) using iQ SYBR Green Supermix. (Bio-Rad) The cDNA was amplified with primers for various neural stem cell proliferation and differentiation genes like Notch-1, Nestin, Mash-1, NeuroD, Math-1, Mash-1, Ngn-1, Ngn-2, D1x-2, Sox-2 and Zic-1. Samples obtained from three independent experiments were used for analysis of relative gene expression using the 2(-Delta Delta C(T) Method (Livak, K J and Schmittgen, T D, Methods 25:402-408 (2001)) and were normalized to α-Tubulin gene expression as internal control.
# Since Ngn2 mRNA expression, a major gene of neuronal differentiation, appears to be regulated by the α1A-ARs, the common a i-AR signals responsible for this gene regulation was determined. Real time PCR and inhibitors for PKC (GO6983), PI3K (LY294002), MEK (PD98059) and p38 (SB202190) were used on one day phenylephrine treated normal neonatal neurospheres. […]
smiles,measurement,value
O=c1cc(N2CCOCC2)oc2c(-c3ccccc3)cccc12 [LY294002],block of α1A-AR mediated increased Ngn2 expression,blocked
